This data set concerns MDA-MB-231 xenografts. Kind of data set: EC17 dose finding and CRS assessment in MDA-MB-231 tumor-bearing mice. The format is in vivo. The source says:
Panel A: Schematic diagram to show dose scheduling of CAR-T cells (˜10 million “clinical facsimile”) plus EC17 dosed 3 different ways in NSG mice without or with pre-established MDA-MB-231 xenografts. Tumor-free mice received EC17 SIW 500 nmol/kg (2 doses on days 2 and 10). Tumor-bearing mice received EC17 as follows: EC17 SIW 500 nmol/kg (5 doses on days 2, 10, 17, 24, and 31), EC17 M/Th/M_Escalation-1 (repeats of 5/50/500 nmol/kg on Monday/Thursday/Monday followed by 1-week break, i,e. on days 2, 6, 10, 17, 20, 24, and 31), or EC17 M/Th/M_Escalation-2 (repeats of 5/100/1000 nmol/kg on Monday/Thursday/Monday followed by 1-week break, i.e. days 2, 6, 10, 17, 20, 24, and 31). Panel B: Systemic levels of human IFNγ on a log 2 scale detected in mouse plasma on days 11 and 12 after CAR-T cell injection in tumor-bearing versus tumor-free mice (i.e., ˜20 and 42 hours after the previous EC17 dose in all treated cohorts). Panel C: Circulating CAR-T cells in mouse blood identified as human CD3ε+ EGFRt+ events by flow cytometry and enumerated per 100 μL of whole blood. […]
All animal care and use were performed according to NIH guidelines and in compliance with protocols approved by the Purdue University Animal Use and Care Committee. […] Subcutaneous tumors were measured 2-3 times per week with a caliper and calculated using the ellipsoidal formula (length×width^2)/2. […]

Structures are written as SMILES.

In the case of `Nc1nc2ncc(CNc3ccc(C(=O)N[C@@H](CCC(=O)NCCNC(=S)Nc4ccc(-c5c6ccc(=O)cc-6oc6cc(O)ccc56)c(C(=O)O)c4)C(=O)O)cc3)nc2c(=O)[nH]1` [EC17, FA-(γ)-ethylenediamine-FITC], the “CAR-T cell expansion (human CD3ε+ EGFRt+ events in mouse blood)” value (EC17 treated tumor-bearing animals) is on record as “triggered CAR-T cell expansion”. The “persistence of CAR-T cells in blood” value (tumor-bearing animals, last measurement) is listed as “up to 54 days”.

These data come from patent publication US12240870B2, “Sequencing method for CAR T cell therapy” (Purdue Research Foundation, priority 2018, dated 2025).
